Drawing on paper PMC4912626, this text covers binding for eight molecules.

Sequences of proteins named here, by UniProt entry; tags and fusion partners are left off.
UniProt P01108: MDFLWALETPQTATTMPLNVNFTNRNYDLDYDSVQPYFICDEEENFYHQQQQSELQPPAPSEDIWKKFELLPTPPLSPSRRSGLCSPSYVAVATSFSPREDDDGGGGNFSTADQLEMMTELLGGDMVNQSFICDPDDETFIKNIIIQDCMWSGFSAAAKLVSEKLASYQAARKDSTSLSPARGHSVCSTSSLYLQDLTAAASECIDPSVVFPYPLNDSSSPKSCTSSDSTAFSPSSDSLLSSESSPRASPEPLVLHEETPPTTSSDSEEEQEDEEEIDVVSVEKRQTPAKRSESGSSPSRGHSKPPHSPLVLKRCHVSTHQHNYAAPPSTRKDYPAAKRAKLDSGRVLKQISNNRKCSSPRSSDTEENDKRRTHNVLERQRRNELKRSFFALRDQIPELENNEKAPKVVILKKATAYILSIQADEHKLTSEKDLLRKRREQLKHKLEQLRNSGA
UniProt P01106: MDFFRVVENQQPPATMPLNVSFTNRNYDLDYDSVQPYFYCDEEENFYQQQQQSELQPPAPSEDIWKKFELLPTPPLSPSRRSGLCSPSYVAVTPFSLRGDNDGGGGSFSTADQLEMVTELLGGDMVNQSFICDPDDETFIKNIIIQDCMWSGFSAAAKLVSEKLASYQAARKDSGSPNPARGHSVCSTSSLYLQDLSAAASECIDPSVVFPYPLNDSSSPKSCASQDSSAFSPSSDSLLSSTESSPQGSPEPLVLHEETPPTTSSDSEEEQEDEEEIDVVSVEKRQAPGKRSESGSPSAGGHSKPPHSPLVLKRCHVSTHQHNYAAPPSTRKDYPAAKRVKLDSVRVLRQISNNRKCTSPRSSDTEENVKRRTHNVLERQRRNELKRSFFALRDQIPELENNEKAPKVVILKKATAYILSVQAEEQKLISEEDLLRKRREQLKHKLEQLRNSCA
UniProt Q00417: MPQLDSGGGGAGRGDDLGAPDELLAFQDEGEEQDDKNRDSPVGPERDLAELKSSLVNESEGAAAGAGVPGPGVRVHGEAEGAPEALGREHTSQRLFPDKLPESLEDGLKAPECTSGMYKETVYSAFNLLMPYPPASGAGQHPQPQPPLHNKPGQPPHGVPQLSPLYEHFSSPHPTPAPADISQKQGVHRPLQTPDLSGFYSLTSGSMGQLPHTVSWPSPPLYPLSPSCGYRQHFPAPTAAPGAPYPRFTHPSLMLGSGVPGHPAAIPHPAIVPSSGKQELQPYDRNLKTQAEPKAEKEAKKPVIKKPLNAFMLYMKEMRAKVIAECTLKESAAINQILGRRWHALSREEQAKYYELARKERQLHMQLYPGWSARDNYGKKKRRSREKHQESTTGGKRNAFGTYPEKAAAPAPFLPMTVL
UniProt Q921E6: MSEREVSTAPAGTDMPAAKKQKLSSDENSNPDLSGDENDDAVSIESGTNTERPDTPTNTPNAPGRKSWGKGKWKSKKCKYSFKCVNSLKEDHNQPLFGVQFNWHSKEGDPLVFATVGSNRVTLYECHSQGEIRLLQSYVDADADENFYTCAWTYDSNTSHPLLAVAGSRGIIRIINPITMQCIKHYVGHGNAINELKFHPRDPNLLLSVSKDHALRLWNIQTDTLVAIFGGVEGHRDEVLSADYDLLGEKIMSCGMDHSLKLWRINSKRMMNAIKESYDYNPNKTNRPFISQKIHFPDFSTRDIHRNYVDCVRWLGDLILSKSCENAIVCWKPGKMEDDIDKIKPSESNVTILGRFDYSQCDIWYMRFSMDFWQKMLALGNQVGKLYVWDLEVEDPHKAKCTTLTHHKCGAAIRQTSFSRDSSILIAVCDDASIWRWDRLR
UniProt Q61188: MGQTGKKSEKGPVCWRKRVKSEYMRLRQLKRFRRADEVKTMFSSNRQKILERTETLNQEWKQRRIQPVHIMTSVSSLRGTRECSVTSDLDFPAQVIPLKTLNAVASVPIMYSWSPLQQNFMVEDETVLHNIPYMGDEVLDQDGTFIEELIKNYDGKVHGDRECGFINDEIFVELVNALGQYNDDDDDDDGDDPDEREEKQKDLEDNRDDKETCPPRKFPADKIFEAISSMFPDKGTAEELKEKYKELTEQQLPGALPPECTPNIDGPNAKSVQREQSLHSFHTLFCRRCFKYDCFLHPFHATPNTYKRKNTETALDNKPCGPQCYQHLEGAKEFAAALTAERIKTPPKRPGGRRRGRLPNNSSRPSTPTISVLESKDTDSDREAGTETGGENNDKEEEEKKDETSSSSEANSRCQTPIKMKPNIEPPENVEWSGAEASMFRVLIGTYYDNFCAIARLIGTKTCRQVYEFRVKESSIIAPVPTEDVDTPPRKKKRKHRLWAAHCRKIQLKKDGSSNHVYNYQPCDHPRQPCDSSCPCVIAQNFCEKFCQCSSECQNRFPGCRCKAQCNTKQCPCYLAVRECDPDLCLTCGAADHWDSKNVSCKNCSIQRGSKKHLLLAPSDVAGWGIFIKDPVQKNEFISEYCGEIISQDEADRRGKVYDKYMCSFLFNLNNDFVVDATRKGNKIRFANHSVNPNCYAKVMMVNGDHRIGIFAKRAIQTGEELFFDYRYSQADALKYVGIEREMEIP
UniProt Q6ZN18: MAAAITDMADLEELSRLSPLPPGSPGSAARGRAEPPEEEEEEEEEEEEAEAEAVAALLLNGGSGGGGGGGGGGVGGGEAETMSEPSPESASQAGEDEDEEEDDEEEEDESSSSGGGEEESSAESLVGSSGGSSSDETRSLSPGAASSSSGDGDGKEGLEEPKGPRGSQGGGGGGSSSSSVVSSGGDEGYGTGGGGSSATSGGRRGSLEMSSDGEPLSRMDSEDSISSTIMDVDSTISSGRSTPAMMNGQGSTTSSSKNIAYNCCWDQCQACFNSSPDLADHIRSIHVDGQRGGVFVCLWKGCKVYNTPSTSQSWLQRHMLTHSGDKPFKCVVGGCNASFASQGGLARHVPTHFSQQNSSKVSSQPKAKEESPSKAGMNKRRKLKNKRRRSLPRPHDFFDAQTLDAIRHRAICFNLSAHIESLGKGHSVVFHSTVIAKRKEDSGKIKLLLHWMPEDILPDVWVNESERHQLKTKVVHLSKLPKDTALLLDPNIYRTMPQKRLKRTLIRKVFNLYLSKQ
UniProt Q02248: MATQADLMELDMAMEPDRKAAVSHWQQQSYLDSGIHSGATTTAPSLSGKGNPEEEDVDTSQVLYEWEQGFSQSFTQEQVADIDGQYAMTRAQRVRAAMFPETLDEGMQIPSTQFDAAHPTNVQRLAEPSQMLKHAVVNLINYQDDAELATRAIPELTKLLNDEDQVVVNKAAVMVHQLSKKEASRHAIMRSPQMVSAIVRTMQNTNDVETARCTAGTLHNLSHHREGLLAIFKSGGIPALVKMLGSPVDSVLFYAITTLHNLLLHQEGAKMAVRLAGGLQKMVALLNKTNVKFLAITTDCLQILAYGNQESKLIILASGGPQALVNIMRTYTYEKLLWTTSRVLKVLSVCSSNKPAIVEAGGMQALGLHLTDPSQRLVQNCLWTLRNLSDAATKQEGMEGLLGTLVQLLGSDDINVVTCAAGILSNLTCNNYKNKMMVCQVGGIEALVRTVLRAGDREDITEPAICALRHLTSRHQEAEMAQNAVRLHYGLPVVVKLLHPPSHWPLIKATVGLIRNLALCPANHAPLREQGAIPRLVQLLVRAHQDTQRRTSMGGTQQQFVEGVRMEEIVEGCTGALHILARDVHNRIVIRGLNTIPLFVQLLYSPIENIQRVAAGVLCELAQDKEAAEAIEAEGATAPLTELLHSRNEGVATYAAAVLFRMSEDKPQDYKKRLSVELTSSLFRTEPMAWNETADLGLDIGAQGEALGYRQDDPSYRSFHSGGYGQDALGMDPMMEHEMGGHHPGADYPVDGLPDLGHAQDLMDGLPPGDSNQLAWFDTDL
UniProt Q80U70: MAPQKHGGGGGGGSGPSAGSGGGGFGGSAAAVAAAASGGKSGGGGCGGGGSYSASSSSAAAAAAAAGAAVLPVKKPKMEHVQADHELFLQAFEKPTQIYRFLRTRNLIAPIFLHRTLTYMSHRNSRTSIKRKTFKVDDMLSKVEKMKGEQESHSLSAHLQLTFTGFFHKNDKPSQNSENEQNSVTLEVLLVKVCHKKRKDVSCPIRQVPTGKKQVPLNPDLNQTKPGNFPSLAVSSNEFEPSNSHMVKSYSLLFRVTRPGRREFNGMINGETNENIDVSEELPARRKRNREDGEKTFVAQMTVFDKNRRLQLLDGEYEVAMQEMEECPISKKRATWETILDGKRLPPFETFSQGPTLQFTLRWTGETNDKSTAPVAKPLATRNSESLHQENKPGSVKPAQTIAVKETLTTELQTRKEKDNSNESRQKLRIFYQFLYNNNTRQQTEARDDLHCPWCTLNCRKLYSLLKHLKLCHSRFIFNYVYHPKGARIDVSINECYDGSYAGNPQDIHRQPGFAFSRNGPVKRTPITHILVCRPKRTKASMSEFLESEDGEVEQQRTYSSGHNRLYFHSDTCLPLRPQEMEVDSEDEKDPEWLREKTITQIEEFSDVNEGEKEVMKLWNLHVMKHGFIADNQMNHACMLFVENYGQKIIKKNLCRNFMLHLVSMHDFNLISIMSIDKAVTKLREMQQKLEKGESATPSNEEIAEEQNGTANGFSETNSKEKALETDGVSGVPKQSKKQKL
UniProt Q9CQJ4: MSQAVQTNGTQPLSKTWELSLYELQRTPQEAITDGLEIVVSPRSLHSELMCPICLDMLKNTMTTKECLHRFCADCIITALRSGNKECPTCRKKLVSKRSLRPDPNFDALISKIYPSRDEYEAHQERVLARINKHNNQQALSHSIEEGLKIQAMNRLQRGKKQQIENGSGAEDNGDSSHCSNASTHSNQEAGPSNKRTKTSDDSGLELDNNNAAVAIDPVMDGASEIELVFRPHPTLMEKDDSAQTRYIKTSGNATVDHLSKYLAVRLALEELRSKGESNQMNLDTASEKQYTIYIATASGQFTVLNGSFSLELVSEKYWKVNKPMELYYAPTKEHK

These are yes or no findings as the source states them, for the method shown. For some of these results: Binding seen in cells or lysates may run through a third protein. Some binding calls cover weakened binding; strength is not graded here. For some of these results: Where a sequence is shown, tags or fusion partners need not be part of it.

The target of assay [1] is endogenous Myc (mouse (endogenous in ESCs)) (UniProt P01108). Kind of assay: co-IP; nuclear extracts of ESCs in F-buffer (100 mM NaCl, 1% Triton X-100), in the presence or absence of DNaseI; IP of endogenous Myc, immunoblot. In general terms: In western blotting, separated proteins are transferred to a membrane and probed.
The target is the same in assay [2]. The assay can be described thus: proximity ligation; in situ PLA (Olink) on ESCs fixed in 4% PFA, primary antibodies from different species; LIF- and Myc-dependent ESCs; shRNA knock-downs as specificity controls.
Assay [3] concerns the target T1, endogenous Mycn (mouse (endogenous in ESCs)) (UniProt P03966).
T1 sequence: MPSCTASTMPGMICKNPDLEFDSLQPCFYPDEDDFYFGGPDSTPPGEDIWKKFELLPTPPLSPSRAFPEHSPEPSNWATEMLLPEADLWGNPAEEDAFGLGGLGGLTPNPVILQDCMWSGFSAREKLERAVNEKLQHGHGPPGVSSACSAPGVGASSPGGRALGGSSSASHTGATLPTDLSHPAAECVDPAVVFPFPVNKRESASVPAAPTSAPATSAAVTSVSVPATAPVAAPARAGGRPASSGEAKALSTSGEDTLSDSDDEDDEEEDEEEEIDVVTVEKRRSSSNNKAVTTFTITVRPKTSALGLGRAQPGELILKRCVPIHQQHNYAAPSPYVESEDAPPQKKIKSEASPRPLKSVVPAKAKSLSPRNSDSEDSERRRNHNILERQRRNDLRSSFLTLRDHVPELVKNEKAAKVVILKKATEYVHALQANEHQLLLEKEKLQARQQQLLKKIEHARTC
The assay is described as above.

Assay [4] deals with YFP-MYC (UniProt P01106). Kind of assay: FRET or BRET; acceptor photobleaching FRET (apFRET) in fixed NIH3T3 cells co-expressing CFP- and YFP-tagged proteins, MAX co-expressed (MYC:MAX 4:1). On the technique in general: BRET reads energy transfer from a luciferase to a nearby fluorophore.
Assay [5] concerns the target His-Myc wt (UniProt P01106). The assay can be described thus: pull-down; 1 μg His-MYC bound to magnetic beads with anti-Histidine antibody, 1 μg GST fusion protein, GST-binding buffer (40 mM HEPES pH 7.3, 200 mM KCl, 0.1% NP-40, 0.2% Tween-20), 2 h at 4 °C, immunoblot; both purified.
Assay [6] concerns the target Tcf1 (mouse (endogenous in ESCs)) (UniProt Q00417). Kind of assay: proximity ligation; in situ PLA (Olink) on ESCs fixed in 4% PFA, primary antibodies from different species; LIF- and Myc-dependent ESCs; shRNA knock-downs as specificity controls.
Assay [7] has as its target T2, Tcf3 (mouse (endogenous in ESCs)) (UniProt Q9Z1J1).
T2 sequence: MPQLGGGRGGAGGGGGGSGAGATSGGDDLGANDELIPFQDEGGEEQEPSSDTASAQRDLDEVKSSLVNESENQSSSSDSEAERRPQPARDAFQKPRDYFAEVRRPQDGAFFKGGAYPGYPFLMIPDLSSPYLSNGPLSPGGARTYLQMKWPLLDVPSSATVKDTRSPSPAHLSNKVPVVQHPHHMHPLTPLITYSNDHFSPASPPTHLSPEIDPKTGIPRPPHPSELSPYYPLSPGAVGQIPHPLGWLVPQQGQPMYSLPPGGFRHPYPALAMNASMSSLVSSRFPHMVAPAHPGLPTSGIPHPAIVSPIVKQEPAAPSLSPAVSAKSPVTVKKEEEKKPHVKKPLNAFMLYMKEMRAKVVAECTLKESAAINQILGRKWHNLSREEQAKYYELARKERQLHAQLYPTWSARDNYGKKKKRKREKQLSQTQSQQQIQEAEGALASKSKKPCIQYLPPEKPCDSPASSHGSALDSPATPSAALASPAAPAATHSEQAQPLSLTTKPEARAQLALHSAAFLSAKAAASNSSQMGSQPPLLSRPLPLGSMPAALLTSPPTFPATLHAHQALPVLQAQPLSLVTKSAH
Described as above.

Take Eed (from UniProt Q921E6 1-441): the binding result in assay [1], in assay [2] and in assay [3] was “binds” in each case.

As to Ezh2 (from UniProt Q61188 1-746), the binding result in assay [1], in assay [2] and in assay [3] was “binds” throughout.

AEBP2-CFP (from UniProt Q6ZN18 1-517): in assay [4], the binding result is reported as “binds”.

Regarding GST-AEBP2 (from UniProt Q6ZN18 1-517), the binding entry in assay [5] is reported as “binds”.

As for β-catenin (from UniProt Q02248 1-781), the binding entry in assay [6] and in assay [7] was “binds” in each case.

As for Suz12 (from UniProt Q80U70 1-741), the binding result in assay [1] is listed as “binds”.

With Ring1B (from UniProt Q9CQJ4 1-336), the binding entry in assay [1] was “no binding”.

B1: Aebp2 (protein, UniProt Q9Z248 1-504)
chain: MAAALADMADLEELSRLSPLSPGSPGPAARGRAEPPEEEEEEDDEEAEAEAVAALLLNGGAGGGAGGGEAETMSEPSPESASQAGGDEDEDEEDDEDEGSSSGGAEEESSAESLVGSSSGGCSGDETRSLSPGAASSSSGDGDGKEGLEEPKGPRGGPGGPGSSGGGSSSSSVVSSGGDEGYGTGGGGSSATSGGRRGSLEMSSDGEPLSRMDSEDSISSTLMDIDSTISSGRSTPAMMNGQGSTTASSKHIAYNCCWDQCQACFNSSPDLADHIRSIHVDGQRGGVFVCLWKGCKVYNTPSTSQSWLQRHMLTHSGDKPFKCVVGGCNASFASQGGLARHVPTHFSQQNSSKVSSQPKAKEESPSKAGMNKRRKLKNKRRRSLPRPHDFFDAQTLDAIRHRAICFNLSAHIESLGKGHSVVFHSTVIAKRKEESGKIKLLLHWMPEDILPDVWVNESERHQLKTKVVHLSKLPKDTALLLDPNIYRTMPQKRLKRFDILNFPR
For B1, the binding result in assay [1] was “binds”.
